The record followed here is publication doi:10.1101/161802.

Chains of the proteins cited; added tags and fusions are not shown. Lines headed by an entry give the natural chain unless they say otherwise; changes in a name come on top. Residues count along the entry.
UniProt Q9GZZ9, residues 314-404: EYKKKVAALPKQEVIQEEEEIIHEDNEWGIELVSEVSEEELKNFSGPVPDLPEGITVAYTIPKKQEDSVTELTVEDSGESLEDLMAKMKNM
UniProt P61960: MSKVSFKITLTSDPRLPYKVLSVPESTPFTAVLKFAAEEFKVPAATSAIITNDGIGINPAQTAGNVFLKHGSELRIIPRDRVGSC

The target of the test is GST-Uba5^314-404 (UniProt Q9GZZ9). The test can be described thus: pull-down.

No constants are given. Whether binding was seen depends on the method and setting. Binding calls can cover weak binding; strength is not graded here.

“Ubiquitin fold modifier 1 (Ufm1), wild type (from UniProt P61960)”: the binding result was “binds”. In the case of Ufm1 L33A (from UniProt P61960) it was “binds”.

Regarding Ufm1 S47A (from UniProt P61960), the binding result is given as “binds”. Then Ufm1 T46A (from UniProt P61960), with “binds”. On to Ufm1 V66A (from UniProt P61960), for which the binding result is “binds”.
